Taken from: PubChem BioAssay AID1159544 (Gurdon Institute, 2015)

- Screen: 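E2 ubiquitin-conjugating enzymes required to build or resolve radiation-induced repair foci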 (primary screen)
- System: human U2OS osteosarcoma cells
- Reagents: siRNA against human genes, about 60 nM siRNA
- Duration: about 3 days from transfection to irradiation, then fixed 30 min to 24 h later
- Conditions: ionising radiation, 2 Gy; fixed 30 min, 2 h, 8 h or 24 h later; untreated plates as reference
- Measurement: 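Confocal images of DAPI-defined nuclei stained with FK2 against conjugated ubiquitin; foci detected automatically, counted per nucleus and averaged per well as raw means without normalisation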
- Scale: FK2 foci per cell, 30 min post-IR: higher = more ubiquitin foci early after irradiation; FK2 foci per cell, unirradiated: higher = more ubiquitin foci without irradiation; FK2 foci per cell, 2 h post-IR: higher = more ubiquitin foci 2 h after irradiation; FK2 foci per cell, 24 h post-IR: higher = more ubiquitin foci persisting a day later
- Active means: 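a knock-down counts as active if its averaged foci count at 30 min post-irradiation lies over 40% above or below the luciferase siRNA average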
The screen tested 41 reagents; shown is an unselected part of those with a known target gene and a result. In the full data, 13 (32%) were called active. 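Values are raw well means without normalisation; calls set replicate averages against a luciferase siRNA control; from a single screening run.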 Repeated entries: replicate wells of the same siRNA. No sequences are given here.

Against UBE2J1, the values are FK2 foci per cell, 30 min post-IR 3.17; FK2 foci per cell, unirradiated 2.17; FK2 foci per cell, 2 h post-IR 3.57; FK2 foci per cell, 24 h post-IR 0.957; active.
Against UBE2J1, the entry reads FK2 foci per cell, 30 min post-IR 6.99; FK2 foci per cell, unirradiated 1.96; FK2 foci per cell, 2 h post-IR 2.75; FK2 foci per cell, 24 h post-IR 1.45; active.
For UBE2V2, the entry reads FK2 foci per cell, 30 min post-IR 11.7; FK2 foci per cell, unirradiated 5.02; FK2 foci per cell, 2 h post-IR 7.12; FK2 foci per cell, 24 h post-IR 4.89; inactive.
Depletion of UBE2V2 came out at: FK2 foci per cell, 30 min post-IR 12.5; FK2 foci per cell, unirradiated 4.83; FK2 foci per cell, 2 h post-IR 7.41; FK2 foci per cell, 24 h post-IR 4.34; inactive.
After knock-down of UBE2E1, the screen gave FK2 foci per cell, 30 min post-IR 17.5; FK2 foci per cell, unirradiated 6.4; FK2 foci per cell, 2 h post-IR 12.3; FK2 foci per cell, 24 h post-IR 3.8; inactive.
Against UBE2E1 the deposit lists FK2 foci per cell, 30 min post-IR 17.9; FK2 foci per cell, unirradiated 6.54; FK2 foci per cell, 2 h post-IR 12.2; FK2 foci per cell, 24 h post-IR 4.14; inactive.
With knock-down of UBE2M, the screen gave FK2 foci per cell, 30 min post-IR 12.5; FK2 foci per cell, unirradiated 4.99; FK2 foci per cell, 2 h post-IR 8.12; FK2 foci per cell, 24 h post-IR 3.92; inactive.
For UBE2M, the values are FK2 foci per cell, 30 min post-IR 13.1; FK2 foci per cell, unirradiated 4.67; FK2 foci per cell, 2 h post-IR 8.15; FK2 foci per cell, 24 h post-IR 3.96; inactive.
For UBE2R2, the entry reads FK2 foci per cell, 30 min post-IR 7.18; FK2 foci per cell, unirradiated 5.69; FK2 foci per cell, 2 h post-IR 6.89; FK2 foci per cell, 24 h post-IR 5.17; active.
UBE2R2 showed FK2 foci per cell, 30 min post-IR 7.33; FK2 foci per cell, unirradiated 5.34; FK2 foci per cell, 2 h post-IR 6.5; FK2 foci per cell, 24 h post-IR 5.31; active.
Against UBE2D4 the deposit lists FK2 foci per cell, 30 min post-IR 20; FK2 foci per cell, unirradiated 8.05; FK2 foci per cell, 2 h post-IR 15.3; FK2 foci per cell, 24 h post-IR 5.74; inactive.
After knock-down of UBE2D4 the results were FK2 foci per cell, 30 min post-IR 21.3; FK2 foci per cell, unirradiated 7.86; FK2 foci per cell, 2 h post-IR 15.7; FK2 foci per cell, 24 h post-IR 6.27; inactive.

Active calls, among the entries above:
UBE2J1: FK2 foci per cell, 30 min post-IR = 3.17; FK2 foci per cell, unirradiated = 2.17; FK2 foci per cell, 2 h post-IR = 3.57; FK2 foci per cell, 24 h post-IR = 0.957; call = active
UBE2J1: FK2 foci per cell, 30 min post-IR = 6.99; FK2 foci per cell, unirradiated = 1.96; FK2 foci per cell, 2 h post-IR = 2.75; FK2 foci per cell, 24 h post-IR = 1.45; call = active
UBE2R2: FK2 foci per cell, 30 min post-IR = 7.18; FK2 foci per cell, unirradiated = 5.69; FK2 foci per cell, 2 h post-IR = 6.89; FK2 foci per cell, 24 h post-IR = 5.17; call = active
UBE2R2: FK2 foci per cell, 30 min post-IR = 7.33; FK2 foci per cell, unirradiated = 5.34; FK2 foci per cell, 2 h post-IR = 6.5; FK2 foci per cell, 24 h post-IR = 5.31; call = active
